Binding data for 1 molecule are collected here from PMC4844679.

Results are given in words; binding and its absence hold for the method and conditions named. In cells and extracts the contact can be indirect. Tags and fused reporters may be left off the sequences shown.

The test has as its target Flag-tagged histone H2B-K119R, S. pombe (S. pombe). The test can be described thus: co-IP; lysates of MMS-challenged S. pombe cells, treated with ethidium bromide for 10 min, precipitated by anti-Flag antibody.

B1: EGFP-tagged Wdr70 (S. pombe), from plasmid Rep41-EGFP-Wdr70 (protein, UniProt Q9UT73 1-576)
chain: MDGTNNTIPLQFGKQAQTYDINALIARFIRPKESFLINSVEKESESKLNSKSTTLQSSDSEDWDSEENEDDITDVGVPGSHEIMFPGHSKIVTTTTFDKNGSRFYTGSLDNTIHCWDLNGLSATNPHPFKIIDPTDTNADNVGRYPVSKLSCSTKNQILALYTHSQPILYDRDGSLIVRFSKGDQYIRNMYNTKGHIAEITDGCWQPDSSQIFLTTGYDSTARIWDVNRTKSQLEVFVHVPEGSHTGLSRIPVTSCAWNPAKPDNFATAVLDGSIQFWQKGSRTKRPVMKIKDAHLPQQGISCLSFSQDGNYLLSRGEDNALRVWDLRNSNKCVNERIDILTPKAGGNAIFSPTQKLILAGSTAVNSMKAPLFVLDAMTLDTKATLFFDSKSTVTASVSAVSWNEKINQVSLGSADGNAYVLFSPNESIRGVKDAAMRPPKSKHIDDDLSSTVHINSLSGSAGTSDFGLVEETTESASAYFLEARRRRNAVRKDPKLSRQPQVGRLLEENSVDDIPLATMLNEDPREALLKYADVAKSNPMFTKMYSETQPTPIYQGVTEGDISSEEGNPSKKQKR
B1: the binding result was “no binding”.
